Experimental data from PubChem BioAssay AID493014 (National Center for Advancing Translational Sciences (NCATS), 2011).
This is one part of the list. These are further read-outs of the screen, such as a control signal, another cell line or another target. No call is given for them. Compounds called inactive in the main read-out are mostly missing here. The note in brackets gives the kind of curve behind each potency; many fits are weak.

Assay: qHTS Assay to Find Inhibitors of Chronic Active B-Cell Receptor Signaling
Details: ABC-DLBCL IkBa-CBG/CBR reporter, luminescence ratio (green luciferase fused to IkBa over red control in TMD8 lymphoma cells), 4 h
Description: NIH Molecular Libraries Probe Production Network [MLPCN] NIH Chemical Genomics Center [NCGC] MLPCN Grant: 1 R03 DA031086-01A1 PI Name: Dr. R. Eric Davis NCGC Assay Overview: Diffuse large B-cell lymphoma (DLBCL) is the most common category of non-Hodgkin lymphoma, with ~20,000 new cases per year in the United States. DLBCL should be regarded as a collection of different neoplasms. Microarray gene expression analysis has defined two principal types of DLBCL, named for their similarity to normal B cell stages or activation states: a germinal center B-cell (GCB) type, and an activated B-cell (ABC) type. In ABC-DLBCL, a constitutive high-level activity of the NF-kappaB family of transcription factors has been observed (1) and NF-kappaB target genes are more highly expressed in ABC primary tumors than in GCB tumors. Functional studies have shown a constitutive high-level activity of the IkappaB (inhibitor of kappa-B) kinase (IKK) complex. […] Further analysis of DLBCL primary tumors for NF-kappaB target gene expression imply that although CARD11 is required for constitutive IKK activity in all ABC-DLBCL lines, mutations in CARD11 may be the root cause of IKK activation only in lines or tumors with such mutations. In other words, CARD11 mutations may explain NF-kappaB activation in only 10% of ABC-DLBCL cases. […] This process has been termed 'chronic active BCR signaling' (CABS). The goal of this screen is to find small-molecule inhibitors of the CABS pathway found in ABC-DLBCL lines using a cell-based assay that measures IkappaBalpa stability, which has already been extensively validated in the OCI-Ly3 line (PubChem AID:445; REF: 4). […] The assay uses green (CBG68) and red (CBR) emitting beetle luciferases [Chroma-GloTM developed by Promega Corp.] where the green luciferase is fused to IkappaBalpha and the red luciferase is present in its native state. Both luciferase genes are stably present in the TMD8 human ABC DLBCL cell line, but their expression is under the control of tetracycline-inducible promoters. Following the addition of doxycycline to induce expression of the luciferases, the green luminescence in control cultures rises only slowly because the CBG fusion partner IkappaBalpha is targeted by IKK activity for rapid degradation. In contrast, green luminescence rises rapidly in the presence of proteasome inhibitors or IKK inhibitors. The rise in red luminescence of CBR is not affected by proteasome or IKK inhibitors, and serves as normalization for cell number and nonspecific effects. Compounds were screened as a concentration-titration series that ranged from 46 uM to 3 nM.
NCGC Assay Protocol Summary: Cells were seeded in 1536-well plates at 5000 cells/4uL in IMDM medium containing 0.5% FBS, w/o phenol red, 1% penicillin/streptomycin. Then, 23 nL of compounds or DMSO were delivered to each well using a pin tool. One uL 20ng/ml doxycycline was then dispensed into white solid 1536-well plates and the plates were incubated at 37C/5% C02 in a cell incubator for 4 hrs. Then 4 uL luminescent substrate mix (in-house prepared: 150 mM Tris-Cl, pH 7.6, 3 mM MgCl2, 1% Triton X-100, 5 mM DTT, 0.2 mM CoA, 0.15 mM ATP, 5 mM D-luciferin, final concentrations) was added to each well. The plate was incubated at r.t. for 10-15 min. The plates were measured on a ViewLux plate reader for green luminescence (540/20 nm filter) and red luminescence (618/8 nm filter). The green and red luminescent signals were corrected for red and green luminescence filter overlap using previously determined filter calibration constants (determined using the procedure outlined in the Promega Technical Manual; REF 4). The %Activity was determined from the ratio of corrected green/red luminescent values. MG132 were used as control. […] Red luminescent %Activity was normalized to the difference between red luminesence in basal cells (0%Activity) and zero luminescence (-100% Activity). […]

[1] = measured here: CBR red luminescence, cell number
[2] = measured here: IkBa-CBG green luminescence

O=C(NCCCN1CCN(c2cccc(Cl)c2)CC1)c1nc(-c2ccncc2)no1
AC50 [1]: 0.00731 µM [falling, full curve, poor fit]

COc1cccc(N(CC(=O)N2CCc3ccccc3C2)S(C)(=O)=O)c1
AC50 [1]: 29.1 µM [falling, single point]

O=C(/C=C/Nc1ccc(S(=O)(=O)Nc2cnc3ccccc3n2)cc1)c1ccccc1
AC50 [1]: 15.8 µM [rising, single point]

CCOC(=O)c1c(CN2CCN(CC#N)CC2)n(C)c2cc(Br)c(OC)cc12
AC50 [1]: 7.08 µM [falling, partial curve]

Cc1c(C)c2ccc(OCC(=O)c3ccccc3)cc2oc1=O
AC50 [1]: 0.251 µM [rising, full curve, poor fit]

COc1ccc(N(Cc2cc3cccc(C)c3[nH]c2=O)S(C)(=O)=O)cc1
AC50 [1]: 32.6 µM [rising, single point]

CCCCCCC12CCC(C(=O)O)(CC1)CC2
AC50 [1]: 0.58 µM [rising, full curve, poor fit]

COc1ccc2oc(C(=O)OCC(=O)N3C(C)CCCC3C)c(C)c2c1 (centres undefined)
AC50 [1]: 11.2 µM [falling, single point]

COCCCn1c(SCC(=O)OC2CCCCC2)nnc1-c1ccco1
AC50 [1]: 0.447 µM [falling, full curve, poor fit]

COc1ccccc1Nc1ncnc2c1oc1ccccc12
AC50 [1]: 3.98 µM [rising, full curve, poor fit]

COc1cccc2sc3ccc(C#CC4(O)CCCCC4)cc3c(=O)c12
AC50 [1]: 35.5 µM [falling, single point]

Cc1nc2c(c(=O)n1Cc1ccco1)c1nc3ccccc3nc1n2Cc1ccccc1
AC50 [1]: 5.8 µM [falling, partial curve]

C(=N\Nc1ccccc1)/c1nc2ccccc2s1
AC50 [1]: 12.6 µM [falling, partial curve, poor fit]

O=C(N/N=C/c1ccccc1)c1ccc(OCc2ccccc2)cc1
AC50 [1]: 15.8 µM [falling, partial curve, poor fit]

COC(=O)[C@H](Cc1ccccc1)NC(=O)NCc1cccs1
AC50 [1]: 29.1 µM [rising, single point]

CCOC(=O)Cc1csc(NC(=O)/C=C/c2ccc(OC)cc2)n1
AC50 [1]: 0.631 µM [falling, full curve, poor fit]

COc1ccc(C2=NN(CCC(=O)NCc3ccc4c(c3)OCO4)C(=O)CC2)cc1
AC50 [1]: 6.51 µM [rising, single point]

CCCn1c(CN(Cc2ccccc2)Cc2ccccc2)nc2c1c(=O)n(C)c(=O)n2C
AC50 [1]: 6.51 µM [falling, partial curve]

N/C(=N/OCC(=O)Nc1cccc2ccccc12)c1nonc1N
AC50 [1]: 1.12 µM [falling, full curve]

COc1ccc(O)c(/C=N\NC(=O)CCn2nnc3ccccc32)c1
AC50 [1]: 16.4 µM [falling, single point]

CCOc1ccc(C2C(C(=O)Nc3ccccc3)=C(C)N=c3s/c(=C/c4cccc(OCC(=O)O)c4)c(=O)n32)cc1 (centres undefined)
AC50 [1]: 15.8 µM [falling, single point]

Cn1c(=O)c2c(nc(SCC(=O)N3CCc4ccccc4C3)n2C)n(C)c1=O
AC50 [1]: 1.26 µM [falling, full curve]

CC1=Nc2ccccc2/C1=C\c1nc(-c2ccc(F)cc2)oc1O
AC50 [1]: 18.4 µM [rising, partial curve, poor fit]

COC(=O)C1=C(C)NC2=C(C(=O)CCC2)C1c1cccs1 (centres undefined)
AC50 [1]: 32.6 µM [falling, single point]

COC(=O)Cc1csc(NC(=O)c2ccc3ncsc3c2)n1
AC50 [1]: 8.2 µM [falling, partial curve]

Cc1csc(NC(=O)C(C)Oc2ccc(Cl)cc2C)n1 (centres undefined)
AC50 [1]: 32.6 µM [falling, single point]

O=C(Nc1nc(-c2ccccn2)cs1)c1ncc(Cl)c(Cl)c1Cl
AC50 [1]: 17.8 µM [falling, single point]

Cc1cc(NC(=O)c2cc(C)on2)n(-c2ccccc2)n1
AC50 [1]: 0.0164 µM [rising, full curve, poor fit]

CC(=O)Nc1ccc(SCC(=O)c2cc(C)n(-c3ccccc3F)c2C)cc1
AC50 [1]: 32.6 µM [falling, single point]

CCCc1[nH]nc2c1C(c1ccoc1)C(C#N)=C(N)O2 (centres undefined)
AC50 [2]: 29.1 µM [falling, single point]

C/C(=N\NC(=O)c1nnn(-c2nonc2N)c1-c1ccc(Cl)c(Cl)c1)c1ccncc1
AC50 [1]: 25.1 µM [falling, single point] | AC50 [2]: 35.5 µM [rising, partial curve, poor fit]

CCn1c(SCC(=O)Nc2sc(C)c(C)c2C#N)nnc1C(C)C
AC50 [1]: 29.1 µM [falling, single point]

CCCCCn1c(SC(C)C(C)=O)nc2c1c(=O)[nH]c(=O)n2C (centres undefined)
AC50 [1]: 29.1 µM [rising, single point]

CCOC(=O)c1c(NC(=O)CSc2cccc[n+]2[O-])sc(C(=O)Nc2ccccc2)c1C
AC50 [2]: 35.5 µM [falling, partial curve, poor fit]

COc1ccc(-c2nsc(SCC(=O)NCC3CCCO3)n2)cc1 (centres undefined)
AC50 [1]: 6.31 µM [rising, full curve, poor fit]

C[C@H](CO)N1C[C@H](C)[C@@H](CN(C)Cc2ccc(Oc3ccccc3)cc2)Oc2c(NC(=O)C3CC3)cccc2C1=O
AC50 [1]: 25.9 µM [falling, partial curve, poor fit]

CCCC12CN3CCN(CC(C3)/C1=N\NC(=O)c1ccc(F)cc1)C2
AC50 [1]: 7.08 µM [falling, partial curve]

CCOC(=O)c1cc2c(C)n(-c3ccc(C)cc3)c(C)c2ccc1=O
AC50 [1]: 10 µM [falling, partial curve, poor fit]

NC(=O)c1ccc[n+]([C@H]2O[C@@H](COP(=O)([O-])OP(=O)(O)OC[C@H]3O[C@@H](n4cnc5c(N)ncnc54)[C@H](O)[C@@H]3O)[C@H](O)[C@@H]2O)c1
AC50 [1]: 2.59 µM [rising, full curve, poor fit] | AC50 [2]: 16.4 µM [falling, partial curve]

CCOc1ccc(/C=N\NC(=O)c2c(C)nc3cc(C)ccn23)cc1
AC50 [1]: 35.5 µM [rising, single point]

CCOC(=O)CSc1nnc(CNC(=O)c2cccs2)n1CCc1ccccc1
AC50 [1]: 8.91 µM [falling, partial curve, poor fit]

O=C(O)c1cc(-c2ccc(/C=C3\NC(=O)N(c4ccccc4)C3=O)o2)ccc1Cl
AC50 [1]: 5.62 µM [rising, single point]

CSCCC(NS(=O)(=O)c1ccc2c(c1)oc(=O)n2C)C(=O)Nc1ccc(F)c(Cl)c1 (centres undefined)
AC50 [1]: 0.631 µM [falling, partial curve, poor fit]

CC1CCC2(CC1)C(Nc1cccc(Cl)c1)=NC(=S)N2CC#N (centres undefined)
AC50 [1]: 29.1 µM [falling, single point]

COc1ccccc1C(=O)Nc1nnc(S(=O)(=O)N2CCOCC2)s1
AC50 [1]: 2.51 µM [rising, partial curve, poor fit]

O=C(CSCc1ccccc1Cl)Nc1ccc(C(=O)O)cc1
AC50 [1]: 3.55 µM [falling, full curve]

O=C(CN1C(=O)S/C(=C/c2cc(Br)cs2)C1=O)N1CCOCC1
AC50 [1]: 0.231 µM [falling, full curve]

CCc1cc2c3c(c1)C1(C(=O)N3C(C)(C)CC2C)C(C#N)=C(N)N2C(=C1C#N)Nc1ccccc12 (centres undefined)
AC50 [1]: 29.1 µM [falling, single point]

O=C(N/N=C\c1ccccn1)c1ccccc1O
AC50 [1]: 10 µM [falling, partial curve] | AC50 [2]: 35.5 µM [falling, single point]

Cc1ccc(S(=O)(=O)N(C)C)cc1NC(=O)C(C)OC(=O)c1cc[n+]([O-])cc1 (centres undefined)
AC50 [1]: 1.16 µM [rising, full curve, poor fit]

CC(=O)NC(=S)Nc1ccccc1F
AC50 [1]: 8.91 µM [falling, partial curve, poor fit]

CCOc1cccc(/C=N/NC(=O)c2ccc3c(c2)OCCO3)c1O
AC50 [1]: 7.08 µM [falling, partial curve]

O=C(Oc1c(Cl)cc(Cl)c2cccnc12)c1cccc([N+](=O)[O-])c1
AC50 [2]: 8.2 µM [falling, partial curve, poor fit]

Cc1cc(C)nc(SCCC(=O)N(C)C)n1
AC50 [1]: 29.1 µM [rising, single point]

Cc1cccc(OCc2nc(-c3ccc(-n4cccc4)cc3)no2)c1
AC50 [1]: 8.2 µM [rising, partial curve, poor fit]

CCn1nc(C)c(CNC(=O)C2CCC(=O)N(CCc3ccc(OC)cc3)C2)c1C (centres undefined)
AC50 [1]: 5.62 µM [falling, single point]

CCCOc1ccc(C(C(=O)OCCN(CC)CC)c2ccccc2)cc1 (centres undefined)
AC50 [1]: 29.1 µM [falling, single point]

N=C1C(c2nc(-c3ccc(Cl)cc3)cs2)=C(O)CN1CCCN1CCOCC1
AC50 [1]: 8.2 µM [rising, partial curve, poor fit]

CC(C)=CCC/C(C)=C/CNC(=O)C[C@H]1C[C@H](C(=O)N2CCCCC2)[C@@]2(CCc3ccccc3)c3[nH]c4cc(CCC(=O)N(C)C)ccc4c3CCN2C1=O
AC50 [1]: 23.1 µM [rising, partial curve]

O=C(Nc1ccc(Br)cc1)C1CC=CCC1C(=O)OCC1CCCO1 (centres undefined)
AC50 [1]: 1.84 µM [rising, partial curve, poor fit]

O=C(CCN1C(=O)/C(=C/c2cccs2)SC1=S)Nc1ccccc1O
AC50 [1]: 3.98 µM [falling, partial curve, poor fit]
